# Several values for one entry are separate records, joined by “and”; a condition that tells them apart may be missing. Identical values can stand only once. This list was built around the results that the source calls inconclusive (neither active nor inactive); the mix of calls is not that of the screen. For some assays here: Where the call is inconclusive, the potency comes from a doubtful curve fit. Where a structure was tested more than once in an assay, its records may differ in their call. Activity calls are given as the source filed them. Rule for the calls: active = hit-call score of the fitted dose curve at least 0.9, where 1 is the maximum; inconclusive = response in the unintended direction; inactive = score below 0.9.
# By UniProt entry, the sequences of proteins in these tests, tags left out. Where a name states a change or a piece, a line headed by the entry shows the natural chain unless it says otherwise.
# UniProt O75469: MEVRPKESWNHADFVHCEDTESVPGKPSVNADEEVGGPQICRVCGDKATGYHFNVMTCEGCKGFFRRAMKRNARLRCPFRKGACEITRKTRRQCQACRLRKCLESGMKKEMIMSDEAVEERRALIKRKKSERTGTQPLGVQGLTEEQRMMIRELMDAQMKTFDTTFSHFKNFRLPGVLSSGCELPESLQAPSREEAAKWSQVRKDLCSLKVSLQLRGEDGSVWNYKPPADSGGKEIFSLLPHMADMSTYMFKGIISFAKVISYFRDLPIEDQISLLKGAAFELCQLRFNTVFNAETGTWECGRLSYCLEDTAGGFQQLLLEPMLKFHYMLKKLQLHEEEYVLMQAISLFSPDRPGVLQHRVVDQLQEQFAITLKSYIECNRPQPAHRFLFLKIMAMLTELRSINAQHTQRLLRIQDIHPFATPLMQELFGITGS
# UniProt Q96RI1: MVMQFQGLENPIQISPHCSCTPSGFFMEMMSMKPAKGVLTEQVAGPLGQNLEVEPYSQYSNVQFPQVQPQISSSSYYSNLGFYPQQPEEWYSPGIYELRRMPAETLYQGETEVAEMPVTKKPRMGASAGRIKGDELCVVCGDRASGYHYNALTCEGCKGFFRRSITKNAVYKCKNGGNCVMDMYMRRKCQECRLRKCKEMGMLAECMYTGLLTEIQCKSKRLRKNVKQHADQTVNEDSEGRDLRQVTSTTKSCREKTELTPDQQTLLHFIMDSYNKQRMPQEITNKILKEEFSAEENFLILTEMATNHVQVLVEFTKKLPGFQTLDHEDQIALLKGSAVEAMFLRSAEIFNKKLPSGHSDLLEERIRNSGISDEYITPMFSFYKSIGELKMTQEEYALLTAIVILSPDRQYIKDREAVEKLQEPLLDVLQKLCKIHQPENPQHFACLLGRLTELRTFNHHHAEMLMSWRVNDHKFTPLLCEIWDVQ
# UniProt P19785, whole entry, looked up: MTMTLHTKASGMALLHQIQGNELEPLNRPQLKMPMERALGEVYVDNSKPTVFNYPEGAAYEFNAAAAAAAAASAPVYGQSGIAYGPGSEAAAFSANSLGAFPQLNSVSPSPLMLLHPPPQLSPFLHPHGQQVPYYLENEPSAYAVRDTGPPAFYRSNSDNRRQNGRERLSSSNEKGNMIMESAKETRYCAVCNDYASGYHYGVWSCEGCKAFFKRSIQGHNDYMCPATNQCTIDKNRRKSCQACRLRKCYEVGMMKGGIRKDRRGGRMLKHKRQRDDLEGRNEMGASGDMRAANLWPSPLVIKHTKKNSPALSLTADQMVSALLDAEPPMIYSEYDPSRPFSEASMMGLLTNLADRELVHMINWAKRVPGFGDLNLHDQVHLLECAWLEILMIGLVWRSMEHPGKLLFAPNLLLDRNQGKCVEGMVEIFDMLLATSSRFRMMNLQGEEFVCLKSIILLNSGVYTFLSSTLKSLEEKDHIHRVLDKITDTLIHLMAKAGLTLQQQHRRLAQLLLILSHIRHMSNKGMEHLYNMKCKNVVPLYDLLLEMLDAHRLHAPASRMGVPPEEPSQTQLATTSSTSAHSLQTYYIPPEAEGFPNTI
# UniProt P10275: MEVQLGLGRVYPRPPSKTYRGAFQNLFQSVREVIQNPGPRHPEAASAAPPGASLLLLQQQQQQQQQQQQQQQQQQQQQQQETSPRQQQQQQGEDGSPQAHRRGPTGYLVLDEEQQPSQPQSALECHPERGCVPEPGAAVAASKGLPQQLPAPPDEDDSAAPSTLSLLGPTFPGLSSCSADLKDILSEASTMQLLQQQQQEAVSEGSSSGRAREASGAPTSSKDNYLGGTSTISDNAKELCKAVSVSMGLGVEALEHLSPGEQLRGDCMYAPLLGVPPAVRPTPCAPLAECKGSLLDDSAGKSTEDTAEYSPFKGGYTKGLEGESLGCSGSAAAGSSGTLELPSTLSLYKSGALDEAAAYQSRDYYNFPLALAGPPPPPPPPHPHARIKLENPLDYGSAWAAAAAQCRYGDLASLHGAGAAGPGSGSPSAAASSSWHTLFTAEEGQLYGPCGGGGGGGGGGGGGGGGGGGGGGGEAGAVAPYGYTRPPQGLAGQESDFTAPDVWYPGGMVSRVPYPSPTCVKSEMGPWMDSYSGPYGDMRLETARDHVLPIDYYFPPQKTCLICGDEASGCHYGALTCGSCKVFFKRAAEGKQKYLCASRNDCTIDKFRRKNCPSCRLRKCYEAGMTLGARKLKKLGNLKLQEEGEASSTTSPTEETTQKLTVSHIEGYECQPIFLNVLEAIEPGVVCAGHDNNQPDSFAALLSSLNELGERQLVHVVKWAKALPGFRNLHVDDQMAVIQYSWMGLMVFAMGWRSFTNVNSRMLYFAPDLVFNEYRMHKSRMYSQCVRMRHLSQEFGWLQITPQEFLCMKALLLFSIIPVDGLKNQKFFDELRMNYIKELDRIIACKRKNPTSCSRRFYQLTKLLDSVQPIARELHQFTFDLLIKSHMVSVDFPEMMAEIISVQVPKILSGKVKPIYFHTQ
# UniProt Q60492, whole entry, looked up: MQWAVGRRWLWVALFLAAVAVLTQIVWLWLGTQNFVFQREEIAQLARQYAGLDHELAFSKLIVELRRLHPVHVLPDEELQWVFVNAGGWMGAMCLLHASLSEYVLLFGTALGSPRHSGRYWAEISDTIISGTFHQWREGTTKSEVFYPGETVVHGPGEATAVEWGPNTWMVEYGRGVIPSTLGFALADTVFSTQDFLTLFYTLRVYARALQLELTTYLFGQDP
# UniProt Q99808: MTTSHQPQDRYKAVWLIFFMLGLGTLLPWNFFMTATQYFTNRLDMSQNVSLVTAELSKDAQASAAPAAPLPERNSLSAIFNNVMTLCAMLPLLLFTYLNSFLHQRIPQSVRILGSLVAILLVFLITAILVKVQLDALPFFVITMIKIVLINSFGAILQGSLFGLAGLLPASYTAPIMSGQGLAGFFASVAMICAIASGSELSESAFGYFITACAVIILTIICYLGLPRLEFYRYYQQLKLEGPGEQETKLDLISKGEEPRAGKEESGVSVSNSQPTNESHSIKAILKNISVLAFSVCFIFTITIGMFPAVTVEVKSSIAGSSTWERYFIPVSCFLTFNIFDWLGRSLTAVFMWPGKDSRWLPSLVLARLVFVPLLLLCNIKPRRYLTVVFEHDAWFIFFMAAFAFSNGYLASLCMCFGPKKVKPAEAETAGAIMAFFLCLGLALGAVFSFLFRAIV
# UniProt Q92731, whole entry, looked up: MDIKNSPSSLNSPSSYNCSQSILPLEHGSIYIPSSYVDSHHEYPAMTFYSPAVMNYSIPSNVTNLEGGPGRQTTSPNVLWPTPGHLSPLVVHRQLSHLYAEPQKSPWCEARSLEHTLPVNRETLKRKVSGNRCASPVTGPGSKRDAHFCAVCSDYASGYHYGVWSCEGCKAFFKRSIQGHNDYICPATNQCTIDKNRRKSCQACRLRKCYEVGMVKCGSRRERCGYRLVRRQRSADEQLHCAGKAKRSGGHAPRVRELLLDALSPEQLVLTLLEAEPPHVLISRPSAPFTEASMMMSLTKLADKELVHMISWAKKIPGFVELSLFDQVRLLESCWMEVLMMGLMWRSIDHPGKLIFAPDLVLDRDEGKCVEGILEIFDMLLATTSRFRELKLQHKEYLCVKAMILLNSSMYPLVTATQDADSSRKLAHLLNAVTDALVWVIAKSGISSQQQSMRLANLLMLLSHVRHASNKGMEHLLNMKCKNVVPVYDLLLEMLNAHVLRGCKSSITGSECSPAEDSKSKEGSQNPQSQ
# UniProt P37231: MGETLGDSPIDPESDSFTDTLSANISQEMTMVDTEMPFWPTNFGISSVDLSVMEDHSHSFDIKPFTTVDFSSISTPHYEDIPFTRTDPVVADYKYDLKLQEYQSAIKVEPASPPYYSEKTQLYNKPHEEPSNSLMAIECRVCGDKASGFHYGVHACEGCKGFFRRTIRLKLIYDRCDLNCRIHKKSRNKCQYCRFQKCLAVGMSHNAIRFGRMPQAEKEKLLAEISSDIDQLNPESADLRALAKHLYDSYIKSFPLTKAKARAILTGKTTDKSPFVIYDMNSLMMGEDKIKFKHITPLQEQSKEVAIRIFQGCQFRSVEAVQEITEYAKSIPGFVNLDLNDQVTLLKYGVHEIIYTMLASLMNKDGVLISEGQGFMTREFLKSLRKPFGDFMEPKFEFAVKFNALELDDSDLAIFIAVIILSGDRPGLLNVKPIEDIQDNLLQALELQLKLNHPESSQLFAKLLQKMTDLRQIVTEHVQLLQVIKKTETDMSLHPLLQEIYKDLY
# UniProt P31645, whole entry, looked up: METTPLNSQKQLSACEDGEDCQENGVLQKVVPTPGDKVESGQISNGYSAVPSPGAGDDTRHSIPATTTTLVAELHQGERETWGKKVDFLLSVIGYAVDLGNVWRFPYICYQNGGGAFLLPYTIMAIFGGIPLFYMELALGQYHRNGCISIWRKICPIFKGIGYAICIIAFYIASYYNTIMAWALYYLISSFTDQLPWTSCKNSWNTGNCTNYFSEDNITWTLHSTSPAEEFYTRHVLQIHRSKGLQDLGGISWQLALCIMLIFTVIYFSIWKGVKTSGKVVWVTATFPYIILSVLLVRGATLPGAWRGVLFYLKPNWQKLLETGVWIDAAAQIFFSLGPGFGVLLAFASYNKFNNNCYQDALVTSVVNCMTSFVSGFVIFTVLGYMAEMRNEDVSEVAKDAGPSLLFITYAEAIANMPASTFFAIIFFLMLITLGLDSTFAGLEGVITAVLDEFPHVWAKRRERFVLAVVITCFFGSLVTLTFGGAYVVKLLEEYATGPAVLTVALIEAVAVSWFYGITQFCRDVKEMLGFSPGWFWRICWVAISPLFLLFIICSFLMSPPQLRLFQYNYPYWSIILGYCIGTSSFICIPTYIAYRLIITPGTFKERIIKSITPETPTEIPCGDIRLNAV
# UniProt P31652, whole entry, looked up: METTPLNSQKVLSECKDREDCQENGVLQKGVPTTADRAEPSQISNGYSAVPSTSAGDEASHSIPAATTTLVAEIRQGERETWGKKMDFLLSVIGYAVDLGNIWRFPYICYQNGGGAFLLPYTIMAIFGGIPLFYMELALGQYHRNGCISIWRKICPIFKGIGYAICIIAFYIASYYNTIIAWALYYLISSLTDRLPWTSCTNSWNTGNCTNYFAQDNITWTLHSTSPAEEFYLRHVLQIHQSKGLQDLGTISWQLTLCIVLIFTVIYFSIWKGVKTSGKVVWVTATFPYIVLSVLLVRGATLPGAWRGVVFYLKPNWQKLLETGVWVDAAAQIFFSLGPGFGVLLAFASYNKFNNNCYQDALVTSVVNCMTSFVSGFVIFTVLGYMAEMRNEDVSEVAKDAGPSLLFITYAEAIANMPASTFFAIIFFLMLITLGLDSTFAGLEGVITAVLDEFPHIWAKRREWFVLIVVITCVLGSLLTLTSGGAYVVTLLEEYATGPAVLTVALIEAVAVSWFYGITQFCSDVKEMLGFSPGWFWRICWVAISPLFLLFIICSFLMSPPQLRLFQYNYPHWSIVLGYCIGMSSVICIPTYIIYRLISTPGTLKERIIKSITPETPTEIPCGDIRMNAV
# Key:
# [1] = molecular target: Nuclear receptor subfamily 1 group I member 2 (Homo sapiens) (UniProt O75469); assay: NVS_NR_hPXR: NovaScreen (NVS) Nuclear Receptor Binding Assay for human Pregnane X Receptor (PXR) (AID 2283365);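 note: a drop in FRET signal versus DMSO baseline means the compound binds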
# Procedure, shortened: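 Binding was measured by time-resolved fluorescence resonance energy transfer after a 2 h exposure of extracted human PXR protein without cells. Compounds were first tested at 25 uM in duplicate, with concentration series for actives; DMSO defined baseline.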
# [2] = molecular target: Bile acid receptor (Homo sapiens) (UniProt Q96RI1); assay: OT_FXR_FXRSRC1_0480: Odyssey Thera (OT) 8-hour HEK293T Protein-Complementation Assay for Farnesoid X receptor/SRC-1 Co-activator (AID 2283383)
# Procedure, shortened: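 Human kidney HEK293T cells carried FXR/SRC-1 fragment-complementation constructs. Compounds were added and incubated 8 h. Reporter reassembly upon receptor–co-activator interaction was then quantified by fluorescence, with curves fitted in the positive direction relative to DMSO.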
# [3] = molecular target: mouse Estrogen Receptor alpha (Era), Esr1 (gene 13982) (UniProt P19785); assay: NVS_NR_mERa: NovaScreen (NVS) Nuclear Receptor Binding Assay for mouse Estrogen Receptor alpha (Era) (AID 2283378);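 note: hit means loss of bound radioligand signal relative to DMSO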
# Procedure, shortened: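 Test chemicals competed against a specific radioligand for binding to cell-free mouse Era. Duplicate wells at 25 uM were read 18 hours later by filter-based radiodetection, with loss of signal against DMSO scored as activity.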
# [4] = molecular target: Bile acid receptor (Homo sapiens) (UniProt Q96RI1); assay: OT_FXR_FXRSRC1_1440: Odyssey Thera (OT) 24-hour HEK293T Protein-Complementation Assay for Farnesoid X receptor/SRC-1 Co-activator (AID 2283384)
# Procedure, shortened: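 Compounds are applied to human kidney HEK293T cells expressing bait and prey fused to reporter protein fragments; after 24 h, reconstituted reporter fluorescence is measured. Activity is fitted as signal gain over DMSO.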
# [5] = molecular target: Agonist Androgen Response Element (ARE), AR (gene 367) (UniProt P10275); assay: OT_AR_ARELUC_AG_1440: Odyssey Thera (OT) 24-hour CHO-K1 Luciferase Assay for Agonist Androgen Response Element (ARE) (AID 2283379)
# Procedure, shortened: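 CHO-K1 cells carrying an ARE-driven luciferase reporter were exposed to compounds for 24 h. Luminescence was then read after adding a D-luciferin/ATP mix, and activity was scored as a gain in signal over DMSO vehicle.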
# [6] = molecular target: guinea pig Sigma Receptor, Non-selective Binding, SIGMAR1 (gene 100135589) (UniProt Q60492); assay: NVS_OR_gSIGMA_NonSelective: NovaScreen (NVS) Nuclear Receptor Binding Assay for guinea pig Sigma Receptor, Non-selective Binding (AID 2283367)
# Procedure, shortened: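 Radioligand displacement on guinea pig brain membranes, read by filter-based scintillation counting 1 h after dosing. Loss of signal versus DMSO; initial duplicate single-point screen at 25 uM, actives followed in concentration series.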
# [7] = molecular target: human Adenosine Transporter (Adot), SLC29A1 (gene 2030) (UniProt Q99808); assay: NVS_TR_hAdoT: NovaScreen (NVS) Transporter Assay for human Adenosine Transporter (Adot) (AID 2283368)
# Procedure, shortened: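 U937-derived membranes, cell-free radioligand binding, filter scintillation 1 h after dosing. 25 uM duplicate screen; hits (e.g. 30% inhibition) run in concentration-response up to 50 uM; loss of signal versus DMSO.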
# [8] = molecular target: Estrogen receptor beta (Homo sapiens) (UniProt Q92731); assay: OT_ER_ERbERb_1440: Odyssey Thera (OT) 24-hour HEK293T Protein-Complementation Assay for Estrogen Receptor-beta/-beta Homodimer (AID 2283380);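 note: scored as signal increase over DMSO baseline for both agonists and antagonists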
# Procedure, shortened: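 HEK293T cells stably expressing ER beta LBD (aa 310-547) homodimer fragment-complementation reporter, dosed 24 h. Cells formaldehyde-fixed, Draq5-stained; gain in nuclear (agonist) or nuclear plus cytoplasmic (antagonist) fluorescence versus DMSO read by laser scanning cytometry.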
# [9] = molecular target: Peroxisome proliferator-activated receptor gamma (Homo sapiens) (UniProt P37231); assay: NVS_NR_hPPARg: NovaScreen (NVS) Nuclear Receptor Binding Assay for human Peroxisome Proliferator-activated Receptor gamma (PPARg) (AID 2283370)
# Procedure, shortened: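 Fluorescence polarization measures competitive binding to extracted PPARg in a cell-free format. Reading is taken at 2 h; activity is signal loss relative to DMSO. Screening at 25 uM in duplicate preceded confirmatory dose series.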
# [10] = molecular target: human Serotonin Transporter (SERT), SLC6A4 (gene 6532) (UniProt P31645); assay: NVS_TR_hSERT: NovaScreen (NVS) Transporter Assay for human Serotonin Transporter (SERT) (AID 2283372)
# Procedure, shortened: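 Radioligand binding to native SERT in human platelet membranes, read by filter-based scintillation counting 1 h after dosing. Primary screen in duplicate at 25 uM; actives followed up in concentration series; loss of signal versus DMSO baseline.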
# [11] = molecular target: rat Serotonin Transporter (SERT), Slc6a4 (gene 25553) (UniProt P31652); assay: NVS_TR_rSERT: NovaScreen (NVS) Transporter Assay for rat Serotonin Transporter (SERT) (AID 2283375)
# Procedure, shortened: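 Steps: rat forebrain membranes dosed with chemical (25 uM duplicate primary; concentration series for actives); 1 h incubation; labelled ligand bound, filtered, counted by scintillation. Activity scored as signal loss vs DMSO.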
smiles,measurement,setting,value
CC(C)(N)CO,AC50,[1],inconclusive: 23.8 µM
same,AC50,[2],inconclusive: 11.9 µM
CC(CCC(=O)O)(c1ccc(O)cc1)c1ccc(O)cc1,outcome,[1],inactive
same,AC50,[3],active: 6.23 µM
same,outcome,[4],inactive
CCCCCCCCCCCCCCCCCCOS(=O)(=O)O,AC50,[1],active: 5.5 µM
same,outcome,[4],inactive
CCCc1ccc(O)cc1,AC50,[1],inconclusive: 25 µM
same,AC50,[3],inconclusive: 1.04 µM
same,outcome,[2],inactive
O=C1c2ccccc2C(=O)N1SC1CCCCC1,AC50,[1],inconclusive: 0.243 µM
same,outcome,[3],inactive
same,AC50,[2],inconclusive: 89.8 µM
same,AC50,[4],inconclusive: 81.2 µM
NC(=O)N=NC(N)=O,AC50,[1],inconclusive: 0.259 µM
same,AC50,[2],inconclusive: 50 µM
O=c1c(O)c(-c2ccc(O)cc2O)oc2cc(O)cc(O)c12,AC50,[1],active: 6.31 µM
same,outcome,[3],inactive
CCCCc1ccc2c(n1)[C@@H](c1ccc(OC)cc1C[C@H](C)C(=O)O)[C@H](C(=O)O)[C@H]2c1ccc2c(c1)OCO2,AC50,[1],inconclusive: 5.46 µM
same,outcome,[2],inactive
same,AC50,[4],inconclusive: 50 µM
NCc1cccc(CN)c1,AC50,[1],inconclusive: 25 µM
same,AC50,[3],active: 6.34 µM
same,AC50,[2],inconclusive: 12.8 µM
same,outcome,[4],inactive
N#Cc1ccccc1O,outcome,[1],inactive
same,AC50,[2],inconclusive: 50 µM
same,outcome,[4],inactive
CCCCCCCCCc1ccc(OCCO)cc1,outcome,[1],inactive
same,outcome,[3],inactive
same,AC50,[5],active: 0.238 µM
NC(N)=S,AC50,[1],inconclusive: 25 µM
same,AC50,[2],inconclusive: 50 µM
same,AC50,[4],inconclusive: 12.7 µM
CCC(C)(C)C1CCC(O)CC1 (stereo unspecified),outcome,[6],inactive
same,AC50,[3],active: 6.46 µM and inconclusive: 46.6 µM
CCCCCCCCCCCCOC(=O)c1cc(O)c(O)c(O)c1,AC50,[1],inconclusive: 25 µM
same,AC50,[2],inconclusive: 93.6 µM
O=c1[nH]sc2ccccc12,AC50,[7],active: 17.2 µM
CN(C)C(=O)C1(N2CCCCC2)CCN(CC[C@@]2(c3ccc(Cl)c(Cl)c3)CN(C(=O)c3ccccc3)CCO2)CC1,outcome,[5],inactive
same,AC50,[8],inconclusive: 47.2 µM
O=C(O)Cc1ccccc1Nc1c(Cl)cccc1Cl,AC50,[5],inconclusive: 50 µM
O=C(O)c1ccccc1-n1cc(C(=O)O)c(=O)c2cc(Nc3c(F)cc(F)cc3Cl)c(Cl)cc21,outcome,[9],inactive
same,outcome,[4],inactive
O=C=NCCCCCCN=C=O,AC50,[10],inconclusive: 25.4 µM
same,AC50,[2],inconclusive: 51 µM
CN(C)c1ccc(C(=C2C=CC(=[N+](C)C)C=C2)c2ccc(N(C)C)cc2)cc1,AC50,[9],active: 1.4 µM
same,AC50,[3],inconclusive: 25 µM
same,outcome,[5],inactive
same,AC50,[2],inconclusive: 16.8 µM
same,AC50,[4],inconclusive: 22.8 µM
COc1ccc2cc(S(=O)(=O)N[C@H](CC(=O)N[C@H](Cc3ccc(CN4[C@H](C)CCC[C@@H]4C)cc3)C(=O)N(C)C(C)C)c3ccc4c(c3)OCO4)ccc2c1,AC50,[9],inconclusive: 4.74 µM
same,AC50,[4],inconclusive: 85.1 µM
CCC(C)N(C)C(=O)c1cc2ccccc2c(-c2ccccc2Cl)n1 (stereo unspecified),AC50,[9],active: 5.15 µM
same,AC50,[3],inconclusive: 15.9 µM
CCCCCCCCCCO,AC50,[9],inconclusive: 4.96 µM
same,outcome,[2],inactive
CCCCCc1ccc(N)cc1,AC50,[9],inconclusive: 25 µM
same,AC50,[3],active: 0.0459 µM
same,outcome,[3],inactive
Oc1cc2ccccc2c2ccccc12,AC50,[10],inconclusive: 43.3 µM
same,AC50,[3],inconclusive: 0.657 µM
same,AC50,[2],inconclusive: 36.2 µM
same,AC50,[4],inconclusive: 50 µM
CSC(=O)c1cccc2nnsc12,AC50,[10],inconclusive: 0.279 µM
same,AC50,[11],inconclusive: 569 nM
CC(C)c1ccc2c(C(C)C)cc(C(C)C)c(S(=O)(=O)O)c2c1,AC50,[9],active: 4.01 µM and inconclusive: 25 µM
same,AC50,[3],inconclusive: 0.501 µM
same,outcome,[5],inactive
same,AC50,[4],inconclusive: 51.5 µM
CN(C)C(=O)Nc1ccc(Cl)c(Cl)c1,AC50,[9],inconclusive: 5.94 µM
same,AC50,[5],inconclusive: 50 µM
COc1cccc(-c2ccc(/C=C\CN3CCCCCC3)cc2Cl)c1,AC50,[10],inconclusive: 22.6 µM
same,outcome,[11],inactive
same,AC50,[2],inconclusive: 82 µM
CCCCCCCCC=O,AC50,[9],inconclusive: 1.38 µM
same,AC50,[2],inconclusive: 50 µM
CC(C)(C)c1cc(/C=C2\SC(N)=NC2=O)cc(C(C)(C)C)c1O,AC50,[9],inconclusive: 25 µM
same,outcome,[3],inactive
same,AC50,[2],inconclusive: 90.1 µM
CCCCCCCCCCCO,AC50,[9],inconclusive: 0.329 µM
same,outcome,[3],inactive
Cc1cccc(O)c1C,outcome,[9],inactive
same,outcome,[3],inactive
Nc1ccc(C(=O)O)cc1,outcome,[9],inactive
same,outcome,[2],inactive

# Reference: PubChem BioAssay (EPA / NIEHS)
